One substance from publication PMC7916783 can be followed below.

By UniProt entry, the sequences of proteins in these tests, tags left out.
UniProt Q01959: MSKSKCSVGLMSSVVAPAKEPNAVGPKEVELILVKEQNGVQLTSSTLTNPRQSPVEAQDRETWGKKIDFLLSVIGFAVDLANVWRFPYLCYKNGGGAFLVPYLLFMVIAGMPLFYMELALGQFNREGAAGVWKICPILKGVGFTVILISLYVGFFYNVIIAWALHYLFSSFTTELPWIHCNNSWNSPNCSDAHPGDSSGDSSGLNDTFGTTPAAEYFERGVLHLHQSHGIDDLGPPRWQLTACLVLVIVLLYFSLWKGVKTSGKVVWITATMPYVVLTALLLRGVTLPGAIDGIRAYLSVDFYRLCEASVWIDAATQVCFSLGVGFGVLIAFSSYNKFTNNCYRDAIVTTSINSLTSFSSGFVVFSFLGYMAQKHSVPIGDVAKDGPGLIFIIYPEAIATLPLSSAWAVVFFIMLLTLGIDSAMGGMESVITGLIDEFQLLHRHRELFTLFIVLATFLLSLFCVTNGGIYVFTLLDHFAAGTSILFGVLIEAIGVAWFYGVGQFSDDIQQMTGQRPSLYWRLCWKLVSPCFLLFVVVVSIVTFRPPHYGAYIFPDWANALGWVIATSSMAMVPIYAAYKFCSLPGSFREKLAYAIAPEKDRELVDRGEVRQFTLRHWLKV

The target in this test is Dopamine transporter (DAT) (human) (UniProt Q01959). The test is described as follows: SDS-PAGE and Western blot (oligomeric band); lysates (modified RIPA buffer, sonicated) of DAT-transfected Wt and PREPko HEK-293 cells, 12% SDS-PAGE, blot with anti-DAT MAB369 said to be specific for oligomeric DAT; cells also co-transfected with PREP, S554A-PREP or aSyn, or treated with KYP-2047, PMA or Gö-6983.

No constants are given. Whether binding was seen depends on the method and setting. Some results given as binding are weak or reduced against the parent protein; the word gives no strength.

For “Dopamine transporter (DAT) (from UniProt Q01959 1-620)”, the binding result is listed as “binds”.
